Data published in PMC9529947.

How the values were obtained:
[1] = biological target: T1, RhoGDIα (endogenous, 293-CDC42 cells) (human (endogenous in HEK293T-derived 293-CDC42 cells)) (UniProt P52565); assay: proximity ligation; Duolink In Situ Orange kit on fixed, permeabilised 293-CDC42 cells, control or LNX1-overexpressing; probes RhoC/RhoGDIα or HA/RhoGDIα
T1 sequence: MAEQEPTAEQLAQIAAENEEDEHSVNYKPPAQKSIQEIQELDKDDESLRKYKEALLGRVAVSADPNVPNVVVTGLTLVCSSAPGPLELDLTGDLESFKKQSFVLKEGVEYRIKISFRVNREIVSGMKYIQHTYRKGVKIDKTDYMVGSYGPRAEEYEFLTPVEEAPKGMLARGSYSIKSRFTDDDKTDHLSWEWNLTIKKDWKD

[2] = biological target: RhoC R188S (overexpressed, Figure S2) (human (from the printed accession)); assay: co-IP; RhoC immunoprecipitated from cells overexpressing RhoC (wild type or R188S) with or without LNX1; RhoGDIα detected (Figure S2)
[3] = biological target: wild type RhoC (overexpressed, Figure S2) (human (from the printed accession)); assay: as above
[4] = biological target: FLAG-RHOC (human (from the printed accession)); assay: co-IP; EZview Red Anti-FLAG M2 Affinity Gel on lysates of co-transfected HEK293T cells; FLAG-tagged protein as bait, EGFP-tagged protein detected by blot
[5] = biological target: PAFAH1B3-Myc-FLAG (human (from the printed accession)); assay: as above

- binding [1]: binds
Molecule: RhoC (endogenous, 293-CDC42 cells)

- binding [2]: binds
- binding [3]: binds
B1: RhoGDIα (co-immunoprecipitated with RhoC, Figure S2) (protein, UniProt P52565 1-204)
chain: T1 sequence

- binding [4]: no binding
- binding [5]: binds
B2: EGFP-LIS1 (protein, UniProt P63005-1 1-410)
chain: MVLSQRQRDELNRAIADYLRSNGYEEAYSVFKKEAELDMNEELDKKYAGLLEKKWTSVIRLQKKVMELESKLNEAKEEFTSGGPLGQKRDPKEWIPRPPEKYALSGHRSPVTRVIFHPVFSVMVSASEDATIKVWDYETGDFERTLKGHTDSVQDISFDHSGKLLASCSADMTIKLWDFQGFECIRTMHGHDHNVSSVAIMPNGDHIVSASRDKTIKMWEVQTGYCVKTFTGHREWVRMVRPNQDGTLIASCSNDQTVRVWVVATKECKAELREHEHVVECISWAPESSYSSISEATGSETKKSGKPGPFLLSGSRDKTIKMWDVSTGMCLMTLVGHDNWVRGVLFHSGGKFILSCADDKTLRVWDYKNKRCMKTLNAHEHFVTSLDFHKTAPYVVTGSVDQTVKVWECR

Results are given in words; binding and its absence hold for the method and conditions named. Binding seen in cells or lysates may run through a third protein. For some assays here: Binding calls can cover weak binding; strength is not graded here. For some assays here: Tags and fused reporters may be left off the sequences shown. One block for each molecule: values may come before it.
